{"source": "paper PMC9106668", "biological_target": "CTTNBP2_(104–271) (UniProt B9EJA2)", "assay": "zinc-induced pelleting assay (centrifugation, SDS-PAGE); recombinant CTTNBP2 (104-271) incubated with different concentrations of ZnCl2 for 1 h at 4 °C, centrifuged; pellet and supernatant on SDS-PAGE, Coomassie blue; both purified", "note": "No constants are given. Whether binding was seen depends on the method and setting. Some binding calls cover weakened binding; strength is not graded here.", "data": [{"binder": "CTTNBP2_(104–271) (domain or fragment, UniProt B9EJA2 104-271) TNPLSILEAVMAHCRKMQERMSAQLVAAESRQKKLEMEKLQLQALEQEHKKLAAHLEEERGKNKHVVLMLVKECKQLSGKVVEEAQKLEEVMAQLEEEKKKTSELEEQLSAEKQRSSGMEAQLEKQLSEFDTEREQLRAKLSREEAHTTDLKEEIDKMKKMMEQMKKG", "values": [{"measurement": "binding", "value": "binds"}]}]}
